Test results from the supplement of paper PMC6411743.
± gives the standard deviation of the averaged measurements. This is one part of the list.

By UniProt entry, the sequences of proteins in these tests, tags left out. Where a name states a change or a piece, a line headed by the entry shows the natural chain unless it says otherwise.
UniProt Q6PJW8: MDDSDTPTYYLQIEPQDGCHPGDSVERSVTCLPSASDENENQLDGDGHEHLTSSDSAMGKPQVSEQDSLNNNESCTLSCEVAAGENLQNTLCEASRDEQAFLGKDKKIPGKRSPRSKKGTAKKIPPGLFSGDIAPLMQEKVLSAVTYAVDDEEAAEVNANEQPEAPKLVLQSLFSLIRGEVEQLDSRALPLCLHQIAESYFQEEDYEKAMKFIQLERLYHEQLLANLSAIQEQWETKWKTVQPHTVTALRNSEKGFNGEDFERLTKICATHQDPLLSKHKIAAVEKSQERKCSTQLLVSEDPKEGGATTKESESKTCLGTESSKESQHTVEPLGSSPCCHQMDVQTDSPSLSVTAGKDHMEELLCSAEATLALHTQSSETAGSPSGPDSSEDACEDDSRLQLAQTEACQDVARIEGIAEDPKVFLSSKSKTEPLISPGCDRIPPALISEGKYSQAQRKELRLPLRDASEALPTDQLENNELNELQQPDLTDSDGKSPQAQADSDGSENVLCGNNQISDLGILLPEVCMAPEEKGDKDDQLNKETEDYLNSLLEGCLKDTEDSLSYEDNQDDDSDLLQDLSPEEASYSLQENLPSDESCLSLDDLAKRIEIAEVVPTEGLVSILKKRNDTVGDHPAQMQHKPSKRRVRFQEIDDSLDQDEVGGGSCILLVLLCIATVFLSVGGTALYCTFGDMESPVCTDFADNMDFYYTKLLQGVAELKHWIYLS
UniProt Q68D91: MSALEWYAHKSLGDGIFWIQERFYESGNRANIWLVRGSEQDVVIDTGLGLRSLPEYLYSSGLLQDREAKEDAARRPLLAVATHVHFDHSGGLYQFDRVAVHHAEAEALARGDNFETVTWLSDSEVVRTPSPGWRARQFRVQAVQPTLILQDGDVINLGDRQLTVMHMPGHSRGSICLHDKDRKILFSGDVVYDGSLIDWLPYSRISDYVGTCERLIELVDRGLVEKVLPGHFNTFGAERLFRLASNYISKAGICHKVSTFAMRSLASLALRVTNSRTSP
UniProt Q86WA8: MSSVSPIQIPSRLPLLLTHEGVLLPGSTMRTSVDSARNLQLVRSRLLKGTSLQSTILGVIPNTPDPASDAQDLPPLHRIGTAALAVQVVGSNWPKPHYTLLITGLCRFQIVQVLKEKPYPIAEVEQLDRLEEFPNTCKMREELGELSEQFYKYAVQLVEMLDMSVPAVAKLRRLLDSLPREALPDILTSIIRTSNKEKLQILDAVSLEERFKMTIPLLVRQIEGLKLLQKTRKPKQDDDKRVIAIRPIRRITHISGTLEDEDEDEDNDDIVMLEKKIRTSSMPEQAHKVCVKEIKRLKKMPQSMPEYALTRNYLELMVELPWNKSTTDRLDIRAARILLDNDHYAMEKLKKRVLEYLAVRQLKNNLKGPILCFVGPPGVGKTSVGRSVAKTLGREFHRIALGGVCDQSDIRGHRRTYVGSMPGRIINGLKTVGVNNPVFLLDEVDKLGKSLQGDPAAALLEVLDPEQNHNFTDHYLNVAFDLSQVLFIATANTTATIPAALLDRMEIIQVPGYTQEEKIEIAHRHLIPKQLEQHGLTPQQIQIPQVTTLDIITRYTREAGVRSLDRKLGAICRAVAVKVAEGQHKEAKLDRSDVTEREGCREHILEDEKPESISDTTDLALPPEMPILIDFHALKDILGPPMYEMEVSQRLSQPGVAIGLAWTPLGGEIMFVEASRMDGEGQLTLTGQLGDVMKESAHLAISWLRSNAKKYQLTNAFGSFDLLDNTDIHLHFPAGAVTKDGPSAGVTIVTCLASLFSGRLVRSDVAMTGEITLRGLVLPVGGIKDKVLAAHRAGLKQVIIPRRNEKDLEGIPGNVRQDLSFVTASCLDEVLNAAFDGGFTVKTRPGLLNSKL
UniProt Q6NXT1: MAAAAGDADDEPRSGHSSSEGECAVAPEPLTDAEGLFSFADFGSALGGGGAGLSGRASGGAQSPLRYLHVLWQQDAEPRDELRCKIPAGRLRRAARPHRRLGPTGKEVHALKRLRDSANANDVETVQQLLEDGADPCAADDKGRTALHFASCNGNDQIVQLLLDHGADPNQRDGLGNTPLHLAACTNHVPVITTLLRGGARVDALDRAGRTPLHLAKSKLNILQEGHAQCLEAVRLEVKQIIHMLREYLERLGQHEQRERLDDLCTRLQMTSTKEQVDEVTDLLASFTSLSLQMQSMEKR
UniProt Q6P1X6: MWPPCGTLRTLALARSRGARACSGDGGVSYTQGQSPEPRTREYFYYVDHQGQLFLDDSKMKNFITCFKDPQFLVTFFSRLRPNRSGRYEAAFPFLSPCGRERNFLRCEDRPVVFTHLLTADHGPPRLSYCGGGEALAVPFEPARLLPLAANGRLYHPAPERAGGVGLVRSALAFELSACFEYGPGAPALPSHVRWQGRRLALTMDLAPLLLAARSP
UniProt Q659A1: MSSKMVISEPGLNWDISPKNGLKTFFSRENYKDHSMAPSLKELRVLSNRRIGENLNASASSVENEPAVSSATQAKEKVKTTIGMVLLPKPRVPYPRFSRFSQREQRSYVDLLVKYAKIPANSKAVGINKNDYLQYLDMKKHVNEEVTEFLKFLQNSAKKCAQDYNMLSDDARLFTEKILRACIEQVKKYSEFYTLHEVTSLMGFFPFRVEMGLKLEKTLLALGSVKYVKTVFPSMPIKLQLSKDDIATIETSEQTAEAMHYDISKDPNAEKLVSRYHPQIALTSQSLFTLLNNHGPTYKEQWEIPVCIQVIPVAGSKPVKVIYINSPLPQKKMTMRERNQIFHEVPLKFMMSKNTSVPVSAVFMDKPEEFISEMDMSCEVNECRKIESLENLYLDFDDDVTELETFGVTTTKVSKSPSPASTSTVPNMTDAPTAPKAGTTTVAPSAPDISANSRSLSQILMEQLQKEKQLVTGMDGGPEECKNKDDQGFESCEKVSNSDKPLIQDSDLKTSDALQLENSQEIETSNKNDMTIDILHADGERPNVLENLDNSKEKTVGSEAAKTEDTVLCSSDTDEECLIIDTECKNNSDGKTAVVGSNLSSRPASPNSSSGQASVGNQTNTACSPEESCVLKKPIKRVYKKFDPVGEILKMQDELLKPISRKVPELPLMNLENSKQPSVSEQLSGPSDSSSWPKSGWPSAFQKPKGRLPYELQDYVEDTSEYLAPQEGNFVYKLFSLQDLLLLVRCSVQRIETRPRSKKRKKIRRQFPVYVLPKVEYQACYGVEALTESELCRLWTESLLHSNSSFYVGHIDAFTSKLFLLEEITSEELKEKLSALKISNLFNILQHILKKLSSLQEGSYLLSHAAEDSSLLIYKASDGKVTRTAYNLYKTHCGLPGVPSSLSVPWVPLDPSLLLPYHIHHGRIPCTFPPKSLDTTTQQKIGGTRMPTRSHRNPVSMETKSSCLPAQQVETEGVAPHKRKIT
UniProt Q6VY07, whole entry, looked up: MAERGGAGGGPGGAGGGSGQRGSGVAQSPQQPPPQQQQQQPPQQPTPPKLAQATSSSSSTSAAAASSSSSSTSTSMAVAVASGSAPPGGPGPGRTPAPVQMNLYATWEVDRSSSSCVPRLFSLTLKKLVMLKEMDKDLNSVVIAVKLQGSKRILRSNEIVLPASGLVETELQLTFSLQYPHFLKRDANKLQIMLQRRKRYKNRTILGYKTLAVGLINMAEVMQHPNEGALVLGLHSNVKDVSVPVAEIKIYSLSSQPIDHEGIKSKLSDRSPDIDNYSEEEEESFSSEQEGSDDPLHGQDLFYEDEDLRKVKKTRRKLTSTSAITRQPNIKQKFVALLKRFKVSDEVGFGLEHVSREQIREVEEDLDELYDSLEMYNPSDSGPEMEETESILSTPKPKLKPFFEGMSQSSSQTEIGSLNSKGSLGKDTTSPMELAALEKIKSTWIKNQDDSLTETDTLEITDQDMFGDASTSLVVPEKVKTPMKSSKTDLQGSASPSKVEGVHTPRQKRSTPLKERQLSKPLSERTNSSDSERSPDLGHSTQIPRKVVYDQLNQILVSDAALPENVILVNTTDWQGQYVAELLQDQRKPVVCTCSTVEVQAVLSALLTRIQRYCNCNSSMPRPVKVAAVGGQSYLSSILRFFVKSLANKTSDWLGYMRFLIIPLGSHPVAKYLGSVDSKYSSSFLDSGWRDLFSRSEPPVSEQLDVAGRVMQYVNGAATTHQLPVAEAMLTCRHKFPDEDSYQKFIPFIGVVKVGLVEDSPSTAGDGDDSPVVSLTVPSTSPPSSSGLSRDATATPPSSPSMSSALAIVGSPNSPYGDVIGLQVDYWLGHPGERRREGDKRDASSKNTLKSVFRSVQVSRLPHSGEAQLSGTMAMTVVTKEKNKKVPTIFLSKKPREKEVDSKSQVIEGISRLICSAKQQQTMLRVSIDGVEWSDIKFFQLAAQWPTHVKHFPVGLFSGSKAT
UniProt Q86U70: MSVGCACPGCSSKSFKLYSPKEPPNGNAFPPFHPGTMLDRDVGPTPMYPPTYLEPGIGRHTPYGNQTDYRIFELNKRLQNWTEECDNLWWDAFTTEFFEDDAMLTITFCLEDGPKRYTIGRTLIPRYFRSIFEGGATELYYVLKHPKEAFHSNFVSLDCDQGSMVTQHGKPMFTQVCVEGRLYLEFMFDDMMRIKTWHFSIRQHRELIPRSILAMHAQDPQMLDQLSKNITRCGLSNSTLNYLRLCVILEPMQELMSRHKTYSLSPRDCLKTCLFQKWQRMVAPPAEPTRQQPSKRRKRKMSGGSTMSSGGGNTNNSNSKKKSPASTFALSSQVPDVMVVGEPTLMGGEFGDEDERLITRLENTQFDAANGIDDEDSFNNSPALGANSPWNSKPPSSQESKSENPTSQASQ
UniProt Q5VVJ2: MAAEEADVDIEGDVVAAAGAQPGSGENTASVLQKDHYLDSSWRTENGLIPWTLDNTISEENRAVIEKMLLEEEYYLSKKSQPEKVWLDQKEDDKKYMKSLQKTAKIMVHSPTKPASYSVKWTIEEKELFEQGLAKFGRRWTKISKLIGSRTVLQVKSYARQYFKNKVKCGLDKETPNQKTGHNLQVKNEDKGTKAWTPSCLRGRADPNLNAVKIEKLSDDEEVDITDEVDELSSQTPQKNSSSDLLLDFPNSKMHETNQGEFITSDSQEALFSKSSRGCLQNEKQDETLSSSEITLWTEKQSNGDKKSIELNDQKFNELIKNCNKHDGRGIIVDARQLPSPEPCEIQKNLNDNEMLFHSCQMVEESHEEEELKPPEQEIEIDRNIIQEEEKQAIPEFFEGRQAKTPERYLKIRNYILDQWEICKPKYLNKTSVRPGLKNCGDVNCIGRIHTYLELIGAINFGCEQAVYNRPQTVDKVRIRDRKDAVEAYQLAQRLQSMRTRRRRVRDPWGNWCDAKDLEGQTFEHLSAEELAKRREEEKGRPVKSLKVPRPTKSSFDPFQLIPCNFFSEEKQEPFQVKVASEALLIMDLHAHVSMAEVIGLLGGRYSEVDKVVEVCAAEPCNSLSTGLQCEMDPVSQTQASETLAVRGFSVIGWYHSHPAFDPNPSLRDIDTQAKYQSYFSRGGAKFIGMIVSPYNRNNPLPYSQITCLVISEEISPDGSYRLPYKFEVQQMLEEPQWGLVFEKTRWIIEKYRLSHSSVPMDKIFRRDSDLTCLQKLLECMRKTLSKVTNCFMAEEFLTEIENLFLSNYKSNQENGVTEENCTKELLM
UniProt Q5VTR2, whole entry: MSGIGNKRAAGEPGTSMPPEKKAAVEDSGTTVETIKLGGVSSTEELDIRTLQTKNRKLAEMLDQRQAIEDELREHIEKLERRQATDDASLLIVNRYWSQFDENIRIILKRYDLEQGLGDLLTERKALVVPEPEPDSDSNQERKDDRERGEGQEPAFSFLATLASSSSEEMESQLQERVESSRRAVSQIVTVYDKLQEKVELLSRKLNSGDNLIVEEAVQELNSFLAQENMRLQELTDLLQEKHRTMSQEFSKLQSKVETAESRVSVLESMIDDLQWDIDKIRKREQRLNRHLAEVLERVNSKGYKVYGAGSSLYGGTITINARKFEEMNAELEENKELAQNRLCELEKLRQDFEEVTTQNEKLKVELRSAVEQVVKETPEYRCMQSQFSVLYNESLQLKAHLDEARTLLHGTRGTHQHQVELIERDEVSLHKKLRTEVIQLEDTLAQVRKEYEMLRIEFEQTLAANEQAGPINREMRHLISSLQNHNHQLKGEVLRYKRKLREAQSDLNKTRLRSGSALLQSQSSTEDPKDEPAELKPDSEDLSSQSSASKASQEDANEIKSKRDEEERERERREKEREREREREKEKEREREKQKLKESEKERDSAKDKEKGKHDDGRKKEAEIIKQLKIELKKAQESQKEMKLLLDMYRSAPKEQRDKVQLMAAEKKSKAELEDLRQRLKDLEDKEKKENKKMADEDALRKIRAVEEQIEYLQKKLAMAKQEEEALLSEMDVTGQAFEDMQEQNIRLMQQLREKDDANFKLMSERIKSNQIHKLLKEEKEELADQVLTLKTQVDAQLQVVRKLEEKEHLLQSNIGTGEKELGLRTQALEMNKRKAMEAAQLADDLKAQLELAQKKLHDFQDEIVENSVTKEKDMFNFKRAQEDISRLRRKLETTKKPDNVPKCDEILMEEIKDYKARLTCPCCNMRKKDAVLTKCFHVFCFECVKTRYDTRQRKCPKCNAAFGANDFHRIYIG

Compound: Nc1nc2c(ncn2[C@@H]2O[C@H](COP(=O)(O)OP(=O)(O)OP(=O)(O)O)[C@@H](O)[C@H]2O)c(=O)[nH]1 [guanosine triphosphate]
Assay: NP40-soluble protein abundance relative to vehicle (solubility fold change) (ratio); higher = more soluble protein in presence of GTP
How it was run: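 Crude Jurkat lysate, prepared by Dounce homogenisation, was exposed to eight concentrations from 0.1 to 10 mM for 10 min at room temperature and then 3 min at 37 °C. Solubilisation used 0.8% NP40 with benzonase for 60 min at 4 °C, followed by ultracentrifugation and TMT labelling of the supernatant for LC-MS/MS. After vsn normalisation of intensities, each value is the fold change against the detergent-processed vehicle within each replicate, across three independent experiments.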

Target	NP40-soluble protein abundance (concentration: 0.1mM)	NP40-soluble protein abundance (concentration: 0.5mM)	NP40-soluble protein abundance (concentration: 1mM)	NP40-soluble protein abundance (concentration: 2mM)	NP40-soluble protein abundance (concentration: 4mM)	NP40-soluble protein abundance (concentration: 6mM)	NP40-soluble protein abundance (concentration: 8mM)	NP40-soluble protein abundance (concentration: 10mM)
UniProt Q6PJW8 and related entries	1.01 ± 0.17	0.985 ± 0.17	1.04 ± 0.11	0.991 ± 0.21	0.994 ± 0.16	0.994 ± 0.18	0.943 ± 0.12	0.981 ± 0.15
MBLAC2 (UniProt Q68D91)	1.09 ± 0.12	1.03 ± 0.1	1 ± 0.11	1.02 ± 0.13	1.01 ± 0.11	0.941 ± 0.13	0.952 ± 0.097	0.929 ± 0.14
UniProt Q86WA8 and related entries	1.09 ± 0.072	1.09 ± 0.084	1.04 ± 0.079	1.01 ± 0.12	1.02 ± 0.17	0.932 ± 0.12	0.967 ± 0.1	0.966 ± 0.063
UniProt Q5VYS8 and related entries	1.04 ± 0.02	1.08 ± 0.058	1.08 ± 0.046	1.11 ± 0.017	1.09 ± 0.044	1.1 ± 0.021	1.16 ± 0.066	1.12 ± 0.074
UniProt Q709C8 and related entries	1.04 ± 0.042	1.05 ± 0.079	1 ± 0.034	1.03 ± 0.062	1.02 ± 0.084	0.999 ± 0.069	0.998 ± 0.053	0.961 ± 0.06
LIN54 (UniProt Q6MZP7)	0.996 ± 0.031	0.99 ± 0.074	1.02 ± 0.0042	1.07 ± 0.086	1.11 ± 0.054	1.1 ± 0.034	1.15 ± 0.054	1.16 ± 0.13
ANKRD54 (UniProt Q6NXT1)	0.946 ± 0.055	0.874 ± 0.075	1.02 ± 0.056	0.945 ± 0.05	0.984 ± 0.091	0.941 ± 0.081	0.923 ± 0.11	0.951 ± 0.041
C8orf82 (UniProt Q6P1X6)	0.971 ± 0.019	0.928 ± 0.04	0.962 ± 0.045	0.935 ± 0.042	0.938 ± 0.045	0.906 ± 0.011	0.871 ± 0.021	0.911 ± 0.011
COMMD6 (UniProt Q7Z4G1)	0.965 ± 0.082	0.928 ± 0.07	1.03 ± 0.066	1.04 ± 0.046	1 ± 0.046	1.01 ± 0.052	0.951 ± 0.072	1.05 ± 0.061
UniProt Q684P5 and related entries	0.998 ± 0.014	0.997 ± 0.027	0.94 ± 0.031	0.943 ± 0.043	0.935 ± 0.025	0.937 ± 0.032	0.932 ± 0.047	0.921 ± 0.023
UniProt Q659A1	1.08 ± 0.11	1.13 ± 0.13	1.18 ± 0.16	1.25 ± 0.12	1.25 ± 0.13	1.2 ± 0.13	1.36 ± 0.27	1.29 ± 0.2
UniProt Q6VY07 and related entries	0.987 ± 0.013	1.03 ± 0.022	0.953 ± 0.03	0.962 ± 0.019	0.961 ± 0.03	0.948 ± 0.0098	0.944 ± 0.018	0.941 ± 0.03
LDB1 (UniProt Q86U70)	1.066 ± 0.0088	1.04 ± 0.05	1 ± 0.056	0.989 ± 0.024	0.938 ± 0.043	0.951 ± 0.021	0.968 ± 0.047	0.931 ± 0.036
CTR9 (UniProt Q6PD62)	1.07 ± 0.063	1.09 ± 0.1	0.982 ± 0.077	0.996 ± 0.12	0.971 ± 0.088	0.943 ± 0.12	0.88 ± 0.072	0.785 ± 0.051
MYSM1 (UniProt Q5VVJ2)	1.02 ± 0.032	0.972 ± 0.074	0.991 ± 0.031	0.938 ± 0.083	0.943 ± 0.064	0.905 ± 0.1	0.959 ± 0.037	0.935 ± 0.073
RNF20 (UniProt Q5VTR2)	0.98 ± 0.057	0.982 ± 0.055	0.978 ± 0.044	0.948 ± 0.063	0.957 ± 0.054	0.947 ± 0.052	0.987 ± 0.065	0.95 ± 0.056

Reformatted bar-delimited: part of the list above.
Target | NP40-soluble protein abundance (concentration: 0.1mM) | NP40-soluble protein abundance (concentration: 0.5mM) | NP40-soluble protein abundance (concentration: 1mM) | NP40-soluble protein abundance (concentration: 2mM) | NP40-soluble protein abundance (concentration: 4mM) | NP40-soluble protein abundance (concentration: 6mM) | NP40-soluble protein abundance (concentration: 8mM) | NP40-soluble protein abundance (concentration: 10mM)
UniProt Q6VY07 and related entries | 0.987 ± 0.013 | 1.03 ± 0.022 | 0.953 ± 0.03 | 0.962 ± 0.019 | 0.961 ± 0.03 | 0.948 ± 0.0098 | 0.944 ± 0.018 | 0.941 ± 0.03
LDB1 (UniProt Q86U70) | 1.066 ± 0.0088 | 1.04 ± 0.05 | 1 ± 0.056 | 0.989 ± 0.024 | 0.938 ± 0.043 | 0.951 ± 0.021 | 0.968 ± 0.047 | 0.931 ± 0.036
CTR9 (UniProt Q6PD62) | 1.07 ± 0.063 | 1.09 ± 0.1 | 0.982 ± 0.077 | 0.996 ± 0.12 | 0.971 ± 0.088 | 0.943 ± 0.12 | 0.88 ± 0.072 | 0.785 ± 0.051
